Source: US20210161937A1, “ACTIVATION OF MITOCHONDRIAL UNCOUPLING AS A THERAPEUTIC INTERVENTION” (The Trustees of Columbia University in the City of New York, priority 2018, published 2021)

What was measured:
Type in all cases: in vivo
Drosophila [1] = assay: Feeding assay (CAFE assay); settings: flies fed 2,4 DNP or BHT relative to ethanol vehicle
Drosophila [2] = assay: CO2 respiration assay after mitochondrial drug feeding
Protocol: Measurement of CO2 production was performed similarly to Yatsenko et al. 2014. Briefly, 10 flies were placed in a sealed pipette tip-capillary respirometer (without anesthesia) containing a small amount of soda-lime. Respirometers were placed capillary side down in dH20 containing 0.1% blue food dye in a sealed TLC chamber placed in a 25° C. incubator. Empty sealed respirometers (containing no flies) were used to subtract blue dye background migration from experimental (fly-containing) samples. Flies were tested for 2 hr between at circadian timepoints, and CO2 production rate was indirectly determined by the amount of liquid movement up the capillary per hour after background subtraction. At least 6 groups of 10 flies were used per genotype for quantification for each condition. For mitochondrial drug feeding experiments, flies were placed on food containing the following compounds for 24 hr: 500 μM Oligomycin, 1 mM rotenone, 5 mM 2,4 DNP, 0.5% stearate, or ethanol vehicle controls.

Drosophila [3] = assay: Lifespan analysis of flies fed drug-supplemented adult medium; settings: controls or per^01 mutants lacking UAS-transgenes; RU486 during adulthood vs vehicle
Protocol: Drosophila were reared from embryos in low-density bottles with standard medium containing 3.8% glucose, 1.9% sucrose, 3% yeast nutritional flake (Lab Scientific), 6.5% cornmeal, 0.8% agar, supplemented with 1.5% methylparaben mix (10% methylparaben in ethanol) and 1% propionic acid. Adult flies that eclosed within a 24 hour period were collected and transferred to “adult medium” containing 3.8% glucose, 1.9% sucrose, 8% cornmeal, 1% agar, and either 0.01%, 0.5%, 3%, 5%, or 10% yeast extract (Difco) supplemented with 1.5% methylparaben mix and 1% propionic acid for lifespan and biochemical analysis. All percentages given in wt/v except methylparaben mix, propionic acid given in v/v.
All drugs were supplemented into cooled (65° C.) liquid adult medium (containing 3% yeast extract) following preparation to the following final concentration(s): RU486 100μg/mL. RU486 (Cayman Chemical) dissolved in ethanol was supplemented into medium after eclosion at a final concentration of 100 μg/mL (with the exception of DaGS>UAS-Ucp4c and controls, 5 μg/mL) vehicle controls were supplemented with same volume of ethanol alone. […]
Newly eclosed flies (˜24 hr) were collected and allowed to mate for 48 hr. […] Death was scored every 1-2 days, with live flies transferred to fresh vials every 2-3 days. Statistical significance was determined by log-rank analysis.

Compound	feeding rate / food intake (Drosophila [1])	feeding rate / food intake (Drosophila [1]; listed as 2,4 DNP)	metabolic phenotypes of flies lacking the UAS transgene fed RU486 (Drosophila [2]; RU486 feeding alone, results not shown)	respiration rate (relative CO2 production) in RU486 feeding controls (Drosophila [2]; flies lacking UAS-transgenes fed RU486 or vehicle)	lifespan of flies lacking UAS-transgene fed RU486 (Drosophila [3])
Cc1cc(C(C)(C)C)c(O)c(C(C)(C)C)c1 [BHT, butylated hydroxytoluene]	did not decrease feeding rate; also recorded: no significant difference between the three groups	–	–	–	–
O=[N+]([O-])c1ccc(O)c([N+](=O)[O-])c1 [DNP, 2,4-dinitrophenol]	did not decrease feeding rate	no significant difference between the three groups	–	–	–
CC#C[C@]1(O)CC[C@H]2[C@@H]3CCC4=CC(=O)CCC4=C3[C@@H](c3ccc(N(C)C)cc3)C[C@@]21C [RU486, mifepristone]	–	–	no effect	not affected	had no influence on lifespan; also recorded: no effect; also recorded: did not influence lifespan

Entries after “also recorded” stand apart in the source; their conditions may differ.
